From PubChem BioAssay AID485314 (National Center for Advancing Translational Sciences (NCATS), 2010)
Screen size: about 340,000 compounds; about 4,500 (1.3%) were called active. This list was built around the results that the source calls inconclusive (neither active nor inactive); the mix of calls is not that of the screen. Calls follow the shape of the dose curve; as a rule, active = well fitted inhibition curve with a large enough effect; inconclusive = small, poorly fitted or top-dose-only effect, or another doubt; inactive = no such curve, though single readings can be large or run the other way. A potency beside an inconclusive call is a rough fit, not a confirmed value.
% is scaled to controls: 0 for no effect and ±100 for the full control effect; potency is read from the fitted curve at half-maximal effect.

Each molecule was assayed against DNA polymerase beta (Homo sapiens) (UniProt P06746) (assay: qHTS Assay for Inhibitors of DNA Polymerase Beta). Settings: Pol beta primer extension/strand displacement, fluorescence kinetic; activity change, negative = inhibition: at 114 µM (top of the series).
Procedure, shortened: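 10 nM enzyme + cpd, 15 min RT; start with substrate 50 nM final; read 0 min and after 10 min RT. Corrected, normalized data; 4-parameter Hill curve fit.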
For Cc1ccc(-n2c(=O)c3cccnc3n2CC(=O)Nc2ccc(Br)cc2)cc1C, the Potency was “inactive”.
Cc1cc2nc(-c3ccc(SCC(=O)N4CCN(C(=O)c5ccco5)CC4)nc3)[nH]c2cc1C was tested, and the Potency was active: 35.5 µM.
With Cc1csc(NC(=O)c2sccc2C)n1 the Potency was inconclusive: 0.708 µM [inhibitor, single point].
With COC(=O)c1cccc(N/C=C(\[N+](=O)[O-])S(=O)(=O)c2ccccc2)c1 the Potency was “inactive”.
For O=C(NCc1ccc(Cl)cc1)Nc1ccc(F)cc1, the Potency was inconclusive: 0.141 µM [inhibitor, full curve, poor fit].
For O=C(N/N=C/c1ccc(O)c(O)c1)c1cc(-c2ccccc2)nc2ccccc12, the Potency was inconclusive: 10 µM [inhibitor, partial curve].
With COC(=O)c1ccc(COc2ccc3c4c(c(=O)oc3c2)CCC4)o1 the Potency was inconclusive: 39.8 µM [inhibitor, single point].
CCCCCNC(=O)C1CC=CCC1C(=O)O (stereo not given) was tested, and the Potency was inconclusive: 79.4 µM [inhibitor, single point].
For Nc1ccc(C(=O)OCC(=O)NC2CCCc3ccccc32)cc1[N+](=O)[O-] (stereo not given), the Potency was inconclusive: 89.1 µM [inhibitor, single point].
With O=C(COc1ccc2c(-c3ccccc3)cc(=O)oc2c1)Nc1cccnc1 the Potency was inconclusive: 0.141 µM [inhibitor, full curve, poor fit].
With NC(=O)c1ccsc1NC(=O)COC(=O)C1CCCN1C(=O)c1cccs1 (stereo not given) the Potency was inconclusive: 22.4 µM [inhibitor, full curve, poor fit].
With O=C(Nc1ccc2nc(SCC(=O)N3CCOCC3)sc2c1)c1cccc(Cl)c1 the Potency was “inactive”.
In the case of O=C(CSc1ncccn1)N1CCN(Cc2ccccc2)CC1, the Potency is reported as “inactive”.
With Cc1c(C(=O)O)cccc1-n1c(C)cc(/C=N/Nc2ccc([N+](=O)[O-])cn2)c1C the Potency was active: 25.1 µM.
In the case of CC(C)(C)C(=O)Cn1c(=O)n(-c2ccc(Cl)cc2)c(=O)c2c3c(sc21)CCCC3, the Potency is reported as “inactive”.
COc1ccc(CCNC(=O)CCn2c(=O)c3ccccc3n(Cc3cc(C)ccc3C)c2=O)cc1OC was tested, and the Potency was inconclusive: 100 µM [inhibitor, single point].
With CC1CCc2nc3ccc(S(=O)(=O)N4CCC(C(=O)NC(C)c5ccccc5)CC4)cc3c(C(=O)O)c2C1 (stereo not given) the activity change, negative = inhibition was inconclusive: -43.5% [inhibitor].
For Cn1cnnc1SCC(=O)Nc1sc2c(c1C#N)CCCCC2, the Potency was inconclusive: 39.8 µM [inhibitor, partial curve].
CCOc1ccccc1N(C)C(=O)C1CCN(S(=O)(=O)c2cccc3nonc23)CC1 was tested, and the Potency was inconclusive: 0.141 µM [inhibitor, full curve].
For Cc1ccc2nc(N3CCN(c4cccc(C(F)(F)F)c4)CC3)c3nnnn3c2c1, the Potency was inconclusive: 89.1 µM [inhibitor, single point].
For CCN(CC)c1ccc(NC(=O)CCS(=O)(=O)c2cc3c(cc2Cl)NC(=O)CO3)c(C)c1, the Potency was inconclusive: 22.4 µM [inhibitor, single point].
In the case of Cc1ccc(S(=O)(=O)c2ccc(Oc3cccc(C)c3)cc2)cc1, the Potency is reported as “inactive”.
For Oc1ccccc1/C=N/Nc1ccnc(SCc2ccccc2)n1, the Potency was inconclusive: 50.1 µM [inhibitor, partial curve, poor fit].
Cc1cc2c(cc1NS(=O)(=O)c1ccc(F)cc1)n(C)c(=O)c(=O)n2C was tested, and the Potency was inconclusive: 100 µM [inhibitor, single point].
In the case of O=C(N/N=C/c1ccoc1)c1ccc(Br)cc1, the Potency is reported as active: 39.8 µM.
With Cc1cccc(-c2nc(NCCCN3CCOCC3)c3ccccc3n2)c1 the Potency was inconclusive: 100 µM [inhibitor, single point].
With COC(=O)c1cn(CCOc2ccccc2OC)c2ccccc12 the Potency was “inactive”.
In the case of O=C(NC12CC3CC(CC(C3)C1)C2)c1ccc(N2CCNCC2)c([N+](=O)[O-])c1, the Potency is reported as inconclusive: 63.1 µM [inhibitor, single point].
CC(C)(C)N1C(=O)c2ccccc2NC(=O)N1Cc1ccccc1 was tested, and the Potency was inconclusive: 100 µM [inhibitor, single point].
In the case of Cc1csc2nc(COC(=O)c3cccc(NC(=O)COc4ccc(Cl)cc4)c3)cc(=O)n12, the Potency is reported as inconclusive: 89.1 µM [inhibitor, single point].
With CCCCC(NC(=O)c1ccccc1)C(=O)OCC(=O)N1c2ccccc2Sc2ccccc21 (stereo not given) the Potency was inconclusive: 3.16 µM [inhibitor, full curve, poor fit].
COCCNC(=O)Cn1nc(C)c2c(C)n(-c3ccc(C)cc3)nc2c1=O was tested, and the Potency was “inactive”.
With Nc1cc2nc3ccccc3oc-2cc1=O the Potency was active: 25.1 µM.
For Cc1ccnc(NC(=O)CCc2c[nH]c3ccccc23)c1, the Potency was inconclusive: 0.316 µM [inhibitor, full curve, poor fit].
With CCN(c1ccccc1C)S(=O)(=O)c1nnc(NC(=O)c2ccco2)s1 the Potency was inconclusive: 50.1 µM [inhibitor, single point].
In the case of O=C(NCCc1csc(-c2cccnc2)n1)c1ccc(Br)o1, the Potency is reported as inconclusive: 79.4 µM [inhibitor, single point].
With Cc1ccc(-n2ncc(C(=O)NC3CCCCC3)c2C2CCN(C(=O)OC(C)(C)C)CC2)cc1 the Potency was “inactive”.
In the case of O=C(COC(=O)c1cc2c(s1)CCCC2)Nc1ccc(Cl)cn1, the Potency is reported as “inactive”.
CCc1ccc(OCC(=O)NNC(=S)NC(=O)C2CCCCC2)c(Br)c1 was tested, and the Potency was inconclusive: 89.1 µM [inhibitor, single point].
For CCOC(=O)c1ccc2c(c1)nc(SCC(=O)c1ccco1)n2CC, the Potency was inconclusive: 12.6 µM [inhibitor, full curve, poor fit].
With CCC1=NN2C(=N)/C(=C\c3cccn3-c3ccc(C)cc3C)C(=O)N=C2S1 the Potency was active: 39.8 µM.
With NCC(O)c1ccc(O)c(O)c1 (stereo not given) the Potency was active: 35.5 µM.
Cc1ccc2nc(C)c(C(=O)N/N=C/c3ccccc3[N+](=O)[O-])cc2c1 was tested, and the Potency was “inactive”.
In the case of Cc1c(CCC(=O)O)c(=O)oc2cc(OCc3ccccc3Br)ccc12, the Potency is reported as active: 50.1 µM.
In the case of CCOc1cc(/C=C2/SC(=S)N(CC3CCCO3)C2=O)ccc1O (stereo not given), the Potency is reported as inconclusive: 39.8 µM [inhibitor, partial curve].
